The test concerns the target λN-GFP-Bonus (Drosophila). Briefly: affinity purification with mass spectrometry; anti-GFP antibody and Protein G Dynabeads from lysate of ovaries expressing λN-GFP-Bonus; λN-GFP flies as control; 20 mM Tris-HCl pH 7.4, 150 mM NaCl, 10% glycerol, 0.5% DDM, 25 mM NEM; quantitative LC-MS, 2 biological replicates.

These are yes or no findings as the source states them, for the method shown. In cells and extracts the contact can be indirect. These calls come from enrichment with a bait or labelling near it, and not all partners need be listed. Tags and fused reporters may be left off the sequences shown.

B1: histone acetyltransferase MOF (protein, UniProt O02193 1-827)
chain: MSEAELEQTPSAGHVQEQPIEEEHEPEQEPTDAYTIGGPPRTPVEDAAAELSASLDVSGSDQSAEQSLDLSGVQAEAAAESEPPAKRQHRDISPISEDSTPASSTSTSSTRSSSSSRYDDVSEAEEAPPEPEPEQPQQQQQEEKKEDGQDQVKSPGPVELEAQEPAQPQKQKEVVDQEIETEDEPSSDTVICVADINPYGSGSNIDDFVMDPDAPPNAIITEVVTIPAPLHLKGTQQLGLPLAAPPPPPPPPAAEQVPETPASPTDDGEEPPAVYLSPYIRSRYMQESTPGLPTRLAPRDPRQRNMPPPAVVLPIQTVLSANVEAISDDSSETSSSDDDEEEEEDEDDALTMEHDNTSRETVITTGDPLMQKIDISENPDKIYFIRREDGTVHRGQVLQSRTTENAAAPDEYYVHYVGLNRRLDGWVGRHRISDNADDLGGITVLPAPPLAPDQPSTSREMLAQQAAAAAAASSERQKRAANKDYYLSYCENSRYDYSDRKMTRYQKRRYDEINHVQKSHAELTATQAALEKEHESITKIKYIDKLQFGNYEIDTWYFSPFPEEYGKARTLYVCEYCLKYMRFRSSYAYHLHECDRRRPPGREIYRKGNISIYEVNGKEESLYCQLLCLMAKLFLDHKVLYFDMDPFLFYILCETDKEGSHIVGYFSKEKKSLENYNVACILVLPPHQRKGFGKLLIAFSYELSRKEGVIGSPEKPLSDLGRLSYRSYWAYTLLELMKTRCAPEQITIKELSEMSGITHDDIIYTLQSMKMIKYWKGQNVICVTSKTIQDHLQLPQFKQPKLTIDTDYLVWSPQTAAAVVRAPGNSG
As to B1, the binding entry is listed as “binds”.

(Values after publication PMC10670193.)
